Results are given in words; binding and its absence hold for the method and conditions named. Some binding calls cover weakened binding; strength is not graded here.
Tests used:
[1] = target: T1, human B7-H3 (form not stated) (human) (UniProt Q5ZPR3); test: BIACORE / IHC summary
T1 sequence (looked up): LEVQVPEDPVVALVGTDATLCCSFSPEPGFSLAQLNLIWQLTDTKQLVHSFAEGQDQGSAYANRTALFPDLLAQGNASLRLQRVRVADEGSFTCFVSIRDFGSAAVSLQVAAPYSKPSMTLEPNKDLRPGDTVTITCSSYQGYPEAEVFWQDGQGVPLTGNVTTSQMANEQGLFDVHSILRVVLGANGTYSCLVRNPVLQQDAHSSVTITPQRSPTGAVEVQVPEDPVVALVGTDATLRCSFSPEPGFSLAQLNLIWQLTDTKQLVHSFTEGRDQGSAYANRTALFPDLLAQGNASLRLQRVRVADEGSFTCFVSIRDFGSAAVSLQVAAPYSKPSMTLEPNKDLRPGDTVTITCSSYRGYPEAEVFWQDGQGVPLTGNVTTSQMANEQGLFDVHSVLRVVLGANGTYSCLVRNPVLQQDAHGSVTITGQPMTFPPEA

[2] = target: T1, human B7-H3 (form not stated) (human); test: Binding BIACORE (grade)
[3] = target: T1, human B7-H3 (form not stated) (human); test: BIACORE analysis (grade)
[4] = target: T1, human B7-H3 (form not stated) (human); test: BIACORE (grade, Table 21)
[5] = target: T1, human B7-H3 (form not stated) (human); test: summary of activities (Table 6)
[6] = target: T1, human B7-H3 (form not stated) (human); test: BIACORE, sequential binding (FIG. 8)
[7] = target: T1, human B7-H3 (form not stated) (human); test: relative binding to human B7-H3 (FIG. 12)
[8] = target: T1, human B7-H3 (form not stated) (human); test: relative binding to human B7-H3 (FIG. 13)
[9] = target: T1, human B7-H3 (form not stated) (human); test: BIACORE, sequential binding after BRCA84D (FIG. 8)

Measured: binding

B1: BRCA84D (antibody, IgG1, V domains shown)
VH: DVQLVESGGGLVQPGGSRKLSCAASGFTFSSFGMHWVRQAPEKGLEWVAYISSDSSAIYYADTVKGRFTISRDNPKNTLFLQMTSLRSEDTAMYYCGRGRENIYYGSRLDYWGQGTTLTVSS
VL: DIAMTQSQKFMSTSVGDRVSVTCKASQNVDTNVAWYQQKPGQSPKALIYSASYRYSGVPDRFTGSGSGTDFTLTINNVQSEDLAEYFCQQYNNYPFTFGSGTKLEIK
binds: [1] | [2] | [3] | [4] | [5] | [6]

B2: antibody containing hBRCA84D-5VL and chimeric BRCA84D heavy chain (antibody, V domains shown)
VH: DVQLVESGGGLVQPGGSRKLSCAASGFTFSSFGMHWVRQAPEKGLEWVAYISSDSSAIYYADTVKGRFTISRDNPKNTLFLQMTSLRSEDTAMYYCGRGRENIYYGSRLDYWGQGTTLTVSS
VL: DIQLTQSPSFLSASVGDRVTITCKASQNVDTNVAWYQQKPGQAPKALIYSASYRYSGVPSRFSGSGSGTDFTLTISSLQPEDFATYYCQQYNNYPFTFGQGTKLEIK
binds: [7]

B3: antibody containing hBRCA84D-5VL and hBRCA84D-2VH (antibody, V domains shown)
VH: EVQLVESGGGLVQPGGSLRLSCAASGFTFSSFGMHWVRQAPGKGLEWVAYISSDSSAIYYADTVKGRFTISRDNAKNSLYLQMNSLRDEDTAVYYCGRGRENIYYGSRLDYWGQGTTVTVSS
VL: DIQLTQSPSFLSASVGDRVTITCKASQNVDTNVAWYQQKPGQAPKALIYSASYRYSGVPSRFSGSGSGTDFTLTISSLQPEDFATYYCQQYNNYPFTFGQGTKLEIK
binds: [8]

B4: PRCA157 (antibody, IgG1, V domains shown)
VH: EVQQVESGGDLVKPGGSLKLSCAASGFTFSSYGMSWVRQTPDKRLEWVATINSGGSNTYYPDSLKGRFTISRDNAKNTLYLQMRSLKSEDTAMYYCARHDGGAMDYWGQGTSVTVSS
VL: DIQMTQSPASLSVSVGETVTITCRASESIYSYLAWYQQKQGKSPQLLVYNTKTLPEGVPSRFSGSGSGTQFSLKINSLQPEDFGRYYCQHHYGTPPWTFGGGTNLEIK
binds: [1] | [4] | [9]

B5: BRCA69D (antibody, IgG1, V domains shown)
VH: QVQLQQSGAELARPGASVKLSCKASGYTFTSYWMQWVKQRPGQGLEWIGTIYPGDGDTRYTQKFKGKATLTADKSSSTAYMQLSSLASEDSAVYYCARRGIPRLWYFDVWGAGTTVTVSS
VL: DIQMTQTTSSLSASLGDRVTISCRASQDISNYLNWYQQKPDGTVKLLIYYTSRLHSGVPSRFSGSGSGTDYSLTIDNLEQEDIATYFCQQGNTLPPTFGGGTKLEIK
notes: also called BRCA69A (probable misprint)
binds: [1] | [2] | [3] | [4] | [5] | [9]

From patent US20120294796A1 (MacroGenics, published 2012)
